# Test results as given in the supplement of paper PMC8728848.
# The other results are listed elsewhere or left out.
# Columns and labels:
# Assay in all cases: glycan array binding signal (z-score within array); higher = stronger binding
# Details in all cases: glycan notation: IUPAC condensed, linker removed
# GalNAc(b1-4)GlcNAc = biological target: GalNAc(b1-4)GlcNAc
# Method in brief: (§1)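 Columns mapping to the same glycan were averaged after glycan names were converted to IUPAC-condensed notation. The data come from 3228 arrays in the Consortium for Functional Glycomics database, limited to those with an available protein sequence. Binding is reported as a within-array Z-score averaged across arrays of one protein sequence and across linkers.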
# [1] = biological target: GalNAc(b1-4)GlcNAc(b1-2)Man
# Method in brief: as §1
# [2] = biological target: GalNAc(b1-4)GlcNAc(b1-2)Man(a1-3)[GalNAc(b1-4)GlcNAc(b1-2)Man(a1-6)]Man(b1-4)GlcNAc(b1-4)GlcNAc
# Method in brief: as §1
# [3] = biological target: GalNAc(b1-4)GlcNAc(b1-3)GalNAc(b1-4)GlcNAc
# Method in brief: as §1
# GalNAc(b1-4)GlcNAc6S = biological target: GalNAc(b1-4)GlcNAc6S
# Method in brief: as §1
# GalNAc(b1-6)GalNAc = biological target: GalNAc(b1-6)GalNAc
# Method in brief: as §1
# GalNAc3S(b1-4)GlcNAc = biological target: GalNAc3S(b1-4)GlcNAc
# Method in brief: as §1
# GalNAc3S(b1-4)GlcNAc3S = biological target: GalNAc3S(b1-4)GlcNAc3S
# Method in brief: as §1
# [4] = biological target: GalNAc3S(b1-4)[Fuc(a1-3)]GlcNAc
# Method in brief: as §1
# GalNAc4S6S(b1-4)GlcNAc = biological target: GalNAc4S6S(b1-4)GlcNAc
# Method in brief: as §1
# GalNAc6S(b1-4)GlcNAc = biological target: GalNAc6S(b1-4)GlcNAc
# Method in brief: as §1
# Glc(a1-4)Glc = biological target: Glc(a1-4)Glc
# Method in brief: as §1
# [5] = biological target: Glc(a1-4)Glc(a1-4)Glc(a1-4)Glc
# Method in brief: as §1
# Glc(a1-6)Glc(a1-6)Glc = biological target: Glc(a1-6)Glc(a1-6)Glc
# Method in brief: as §1
# [6] = biological target: Glc(a1-6)Glc(a1-6)Glc(a1-6)Glc
# Method in brief: as §1
# Glc(b1-4)Glc = biological target: Glc(b1-4)Glc
# Method in brief: as §1
# Glc(b1-6)Glc = biological target: Glc(b1-6)Glc
# Method in brief: as §1
# GlcA(b1-3)Gal = biological target: GlcA(b1-3)Gal
# Method in brief: as §1
# GlcA(b1-3)GlcNAc = biological target: GlcA(b1-3)GlcNAc
# Method in brief: as §1
# GlcA(b1-6)Gal = biological target: GlcA(b1-6)Gal
# Method in brief: as §1
# [7] = biological target: GlcA3S(b1-3)Gal(b1-4)GlcNAc(b1-2)Man
# Method in brief: as §1
# [8] = biological target: GlcA3S(b1-3)Gal(b1-4)GlcNAc(b1-3)Gal(b1-4)Glc
# Method in brief: as §1
# [9] = biological target: GlcNAc(a1-3)Gal(b1-4)GlcNAc
# Method in brief: as §1
# [10] = biological target: GlcNAc(a1-4)Gal(b1-3)GlcNAc
# Method in brief: as §1
# [11] = biological target: GlcNAc(a1-4)Gal(b1-4)GalNAc
# Method in brief: as §1
# [12] = biological target: GlcNAc(a1-4)Gal(b1-4)GlcNAc
# Method in brief: as §1
# [13] = biological target: GlcNAc(a1-4)Gal(b1-4)GlcNAc(b1-3)Gal(b1-4)Glc
# Method in brief: as §1
# [14] = biological target: GlcNAc(a1-4)Gal(b1-4)GlcNAc(b1-3)Gal(b1-4)GlcNAc
# Method in brief: as §1
# [15] = biological target: GlcNAc(a1-4)Gal(b1-4)GlcNAc(b1-3)Gal(b1-4)GlcNAc(b1-3)Gal(b1-4)GlcNAc
# Method in brief: as §1
# [16] = biological target: GlcNAc(a1-4)Gal(b1-4)GlcNAc(b1-3)Gal(b1-4)[Fuc(a1-3)]GlcNAc(b1-3)Gal(b1-4)[Fuc(a1-3)]GlcNAc
# Method in brief: as §1
# [17] = biological target: GlcNAc(a1-6)Gal(b1-4)GlcNAc
# Method in brief: as §1
# [18] = biological target: GlcNAc(b1-2)Gal(b1-3)GalNAc
# Method in brief: as §1
# [19] = biological target: GlcNAc(b1-2)Man(a1-3)[GlcNAc(b1-2)Man(a1-6)]Man(b1-4)GlcNAc(b1-4)GlcNAc
# Method in brief: as §1
# [20] = biological target: GlcNAc(b1-2)Man(a1-3)[GlcNAc(b1-2)Man(a1-6)]Man(b1-4)GlcNAc(b1-4)[Fuc(a1-6)]GlcNAc
# Method in brief: as §1
# [21] = biological target: GlcNAc(b1-2)Man(a1-3)[GlcNAc(b1-4)][GlcNAc(b1-2)Man(a1-6)]Man(b1-4)GlcNAc(b1-4)GlcNAc
# Method in brief: as §1
# [22] = biological target: GlcNAc(b1-2)Man(a1-3)[GlcNAc(b1-4)][GlcNAc(b1-2)Man(a1-6)]Man(b1-4)GlcNAc(b1-4)[Fuc(a1-6)]GlcNAc
# Method in brief: as §1
# [23] = biological target: GlcNAc(b1-2)[GlcNAc(b1-4)]Man(a1-3)[GlcNAc(b1-2)Man(a1-6)]Man(b1-4)GlcNAc(b1-4)GlcNAc
# Method in brief: as §1
binder,measurement,setting,value
"DC-Sign-R (Homo sapiens), Q9H2X3 (protein) MSDSKEPRVQQLGLLEEDPTTSGIRLFPRDFQFQQIHGHKSSTGCLGHGALVLQLLSFMLLAGVLVAILVQVSKVPSSLSQEQSEQDAIYQNLTQLKAAVGELSEKSKLQEIYQELTQLKAAVGELPEKSKLQEIYQELTRLKAAVGELPEKSKLQEIYQELTRLKAAVGELPEKSKLQEIYQELTRLKAAVGELPEKSKLQEIYQELTELKAAVGELPEKSKLQEIYQELTQLKAAVGELPDQSKQQQIYQELTDLKTAFERLCRHCPKDWTFFQGNCYFMSNSQRNWHDSVTACQEVRAQLVVIKTAEEQNFLQLQTSRSNRFSWMGLSDLNQEGTWQWVDGSPLSPSFQRYWNSGEPNNSGNEDCAEFSGSGWNDNRCDVDNYWICKKPAACFRDE",glycan array binding signal (z-score),GalNAc(b1-4)GlcNAc,-0.254
same,glycan array binding signal (z-score),[1],-0.095
same,glycan array binding signal (z-score),[2],0.122
same,glycan array binding signal (z-score),[3],1.46
same,glycan array binding signal (z-score),GalNAc(b1-4)GlcNAc6S,0.725
same,glycan array binding signal (z-score),GalNAc(b1-6)GalNAc,0.447
same,glycan array binding signal (z-score),GalNAc3S(b1-4)GlcNAc,1.28
same,glycan array binding signal (z-score),GalNAc3S(b1-4)GlcNAc3S,0.277
same,glycan array binding signal (z-score),[4],-0.794
same,glycan array binding signal (z-score),GalNAc4S6S(b1-4)GlcNAc,-0.634
same,glycan array binding signal (z-score),GalNAc6S(b1-4)GlcNAc,1.19
same,glycan array binding signal (z-score),Glc(a1-4)Glc,-0.446
same,glycan array binding signal (z-score),[5],-0.785
same,glycan array binding signal (z-score),Glc(a1-6)Glc(a1-6)Glc,-0.104
same,glycan array binding signal (z-score),[6],-0.353
same,glycan array binding signal (z-score),Glc(b1-4)Glc,-0.525
same,glycan array binding signal (z-score),Glc(b1-6)Glc,-0.1
same,glycan array binding signal (z-score),GlcA(b1-3)Gal,-0.815
same,glycan array binding signal (z-score),GlcA(b1-3)GlcNAc,-0.63
same,glycan array binding signal (z-score),GlcA(b1-6)Gal,-0.71
same,glycan array binding signal (z-score),[7],-0.485
same,glycan array binding signal (z-score),[8],0.36
same,glycan array binding signal (z-score),[9],0.698
same,glycan array binding signal (z-score),[10],0.49
same,glycan array binding signal (z-score),[11],-0.357
same,glycan array binding signal (z-score),[12],-0.325
same,glycan array binding signal (z-score),[13],-0.556
same,glycan array binding signal (z-score),[14],-0.616
same,glycan array binding signal (z-score),[15],-0.21
same,glycan array binding signal (z-score),[16],0.712
same,glycan array binding signal (z-score),[17],1.41
same,glycan array binding signal (z-score),[18],0.112
same,glycan array binding signal (z-score),[19],0.112
same,glycan array binding signal (z-score),[20],0.846
same,glycan array binding signal (z-score),[21],0.048
same,glycan array binding signal (z-score),[22],0.246
same,glycan array binding signal (z-score),[23],-0.664

# In another format: results already given
binder	measurement	setting	value
DC-Sign-R (Homo sapiens), Q9H2X3 (protein) MSDSKEPRVQQLGLLEEDPTTSGIRLFPRDFQFQQIHGHKSSTGCLGHGALVLQLLSFMLLAGVLVAILVQVSKVPSSLSQEQSEQDAIYQNLTQLKAAVGELSEKSKLQEIYQELTQLKAAVGELPEKSKLQEIYQELTRLKAAVGELPEKSKLQEIYQELTRLKAAVGELPEKSKLQEIYQELTRLKAAVGELPEKSKLQEIYQELTELKAAVGELPEKSKLQEIYQELTQLKAAVGELPDQSKQQQIYQELTDLKTAFERLCRHCPKDWTFFQGNCYFMSNSQRNWHDSVTACQEVRAQLVVIKTAEEQNFLQLQTSRSNRFSWMGLSDLNQEGTWQWVDGSPLSPSFQRYWNSGEPNNSGNEDCAEFSGSGWNDNRCDVDNYWICKKPAACFRDE	glycan array binding signal (z-score)	GlcA(b1-3)GlcNAc	-0.63
same	glycan array binding signal (z-score)	GlcA(b1-6)Gal	-0.71
same	glycan array binding signal (z-score)	[7]	-0.485
same	glycan array binding signal (z-score)	[8]	0.36
same	glycan array binding signal (z-score)	[9]	0.698
same	glycan array binding signal (z-score)	[10]	0.49
same	glycan array binding signal (z-score)	[11]	-0.357
same	glycan array binding signal (z-score)	[12]	-0.325
same	glycan array binding signal (z-score)	[13]	-0.556
same	glycan array binding signal (z-score)	[14]	-0.616
same	glycan array binding signal (z-score)	[15]	-0.21
